In PubChem BioAssay AID2283234 (EPA ToxCast):
The inconclusive results got no clear call from the source; some entries with a clear call stand among them for comparison. Potencies beside an inconclusive call are fits to weak or partial responses and may not hold up. Calls of active or inactive are those of the source. How the source made its calls: active means hit-call score of the fitted dose curve at least 0.9, where 1 is the maximum; inconclusive means response in the unintended direction; inactive means score below 0.9.

Target: human Dual Specificity Styrosine-Phosphorylation-Regulated Kinase 1A (DYRK1a), DYRK1A (gene 1859) (UniProt Q13627)
Test: NVS_ENZ_hDYRK1a: NovaScreen (NVS) Enzymatic Assay for human Dual Specificity Styrosine-Phosphorylation-Regulated Kinase 1A (DYRK1a)
Experimental: NVS_ENZ_hDYRK1a is a biochemical, single-readout assay that uses extracted gene-proteins in a cell-free assay. Measurements were taken 1 hour after chemical dosing in a 96-well plate.NVS_ENZ_hDYRK1a is one of one assay component(s) measured or calculated from the NVS_ENZ_hDYRK1a assay. It is designed to make measurements of enzyme activity, a form of enzyme reporter, as detected with fluorescence intensity signals by Fluorescence and electrophoretic mobility shift technology.Data from the assay component NVS_ENZ_hDYRK1a was analyzed into 1 assay endpoint. This assay endpoint, NVS_ENZ_hDYRK1a, was analyzed in the positive analysis fitting direction relative to DMSO as the negative control and baseline of activity. Using a type of enzyme reporter, loss-of-signal activity can be used to understand changes in the enzymatic activity as they relate to the gene DYRK1A. Furthermore, this assay endpoint can be referred to as a primary readout, because this assay has produced multiple assay endpoints where this one serves a enzymatic activity function. To generalize the intended target to other relatable targets, this assay endpoint is annotated to the kinase intended target family, where the subfamily is dual-specific kinase.
Binding assays used specific radioligands (tritiated, iodinated) with non-radioactive competitive displacement ligands in agonist or antagonist protocols (as indicated) and various reference compounds and inhibitors to titrate specific binding to receptors and transporters. Most enzyme assays (CYPs, kinases, phosphatases, proteases, HDACs) used recombinant protein and specific substrates (fluorescence mostly, some colorimetric and radioactive) and inhibitors, followed by a biochemical separation of substrate and product. All assays for the biochemical HTS were initially run in duplicate at a single concentration (10 uM for CYP450 assays and 25 uM for all others). […] Each assay was run with positive and negative controls, and concurrent controls on every plate. The follow-up (secondary) screen tested active chemical-pairs in concentration series, as well as a few additional assays not tested in the primary screen, some selected negative inactives, and several cases re-run in the concentration series for confirmatory purposes.

| SMILES | AC50 | outcome |
| --- | --- | --- |
| CS(=O)(=O)c1ccc(C(=O)C2C(=O)CCCC2=O)c([N+](=O)[O-])c1 | inconclusive: 25 µM | – |
| CC1=NNC(=O)N(/N=C/c2cccnc2)C1 | active: 13.5 µM | – |
| O=C(O)c1nc(Cl)ccc1Cl | inconclusive: 25 µM | – |
| COc1cc(OC)nc(NC(=O)NS(=O)(=O)c2cc(NC=O)ccc2C(=O)N(C)C)n1 | – | inactive |
| O=C(Nc1ccccc1)Nc1cnns1 | – | inactive |
| CCOCN(C(=O)CCl)c1c(C)cccc1CC | inconclusive: 0.273 µM | – |
| CCCCOC(=O)c1ccccc1C(=O)OCCCC | – | inactive |
| CCc1ccc(C(=O)NN(C(=O)c2cc(C)cc(C)c2)C(C)(C)C)cc1 | inconclusive: 0.182 µM | – |
| COc1ccc(-c2ccccc2)cc1NNC(=O)OC(C)C | inconclusive: 25 µM | – |
| CCN(CC)C(=O)SCc1ccc(Cl)cc1 | – | inactive |
| COCC(C)N(C(=O)CCl)c1c(C)csc1C (stereo unspecified) | inconclusive: 25 µM | – |

3 compounds from above, sorted by molar mass, ascending.

| SMILES | AC50 | outcome |
| --- | --- | --- |
| O=C(O)c1nc(Cl)ccc1Cl | inconclusive: 25 µM | – |
| CCN(CC)C(=O)SCc1ccc(Cl)cc1 | – | inactive |
| CCCCOC(=O)c1ccccc1C(=O)OCCCC | – | inactive |
